From patent US11312984B2, “High-purity steviol glycosides” (PURECIRCLE SDN BHD, priority 2013, dated 2022)

Assay: Conversion of Rebaudioside A to Rebaudioside M with in situ prepared UDP-glucose using UGTSL2, UGT76G1var94 and AtSUS
Assay type: biochemical
Details: after 21 h of reaction time, 0.5 mM Rebaudioside A
Method: The reaction was performed at 1 mL scale using 100 mM of sucrose, 3 mM of MgCl2, 0.25 mM of UDP and 0.5 mM of Rebaudioside A in potassium phosphate buffer (50 mM final concentration, pH 7.5). The reaction was started by adding 15 μL of UGTSL2 (see EXAMPLE 27) lysate (2 U/mL), 150 μL of UGT76G1var94 (see EXAMPLE 26) (2.5 U/mL) and 15 μL of AtSUS (see EXAMPLE 42) (400 U/mL). The reaction was followed by HPLC after quenching 125 μL samples with 10 μL of 2 N H2SO4 and 115 μL of 60% methanol. 68% of Rebaudioside M and 26% of Rebaudioside M2 were obtained after 21 h of reaction time.

Compound | Rebaudioside M2 obtained [%] | Rebaudioside M obtained [%]
C=C1C[C@@]23CC[C@H]4[C@@](C)(CCC[C@@]4(C)C(=O)OC4OC(COC5OC(CO)C(O)C(O)C5O)C(O)C(O)C4OC4OC(CO)C(O)C(O)C4O)[C@@H]2CCC1(OC1OC(CO)C(O)C(OC2OC(CO)C(O)C(O)C2O)C1OC1OC(CO)C(O)C(O)C1O)C3 (stereo partly drawn) [reb M2, 13-[(2-O-β-D-glucopyranosyl-3-O-β-D-glucopyranosyl-β-D-glucopyranosyl)oxy] ent-kaur-16-en-19-oic acid-[(2-O-β-D-glucopyranosyl-6-O-β-D-glucopyranosyl-β-D-glucopyranosyl) ester]] | 26 | 
C=C1C[C@@]23CC[C@H]4[C@@](C)(CCC[C@@]4(C)C(=O)O[C@@H]4O[C@H](CO)[C@@H](O)[C@H](O[C@@H]5O[C@H](CO)[C@@H](O)[C@H](O)[C@H]5O)[C@H]4O[C@@H]4O[C@H](CO)[C@@H](O)[C@H](O)[C@H]4O)[C@@H]2CC[C@]1(O[C@@H]1O[C@H](CO)[C@@H](O)[C@H](O[C@@H]2O[C@H](CO)[C@@H](O)[C@H](O)[C@H]2O)[C@H]1O[C@@H]1O[C@H](CO)[C@@H](O)[C@H](O)[C@H]1O)C3 [reb M, rebaudioside M] |  | 68
